Source: article PMC6660512
These are yes or no findings as the source states them, for the method shown. In cells and extracts the contact can be indirect. Some entries that bind do so weakly or less than the wild type.

Sequences of proteins named here, by UniProt entry; tags and fusion partners are left off.
UniProt P52592: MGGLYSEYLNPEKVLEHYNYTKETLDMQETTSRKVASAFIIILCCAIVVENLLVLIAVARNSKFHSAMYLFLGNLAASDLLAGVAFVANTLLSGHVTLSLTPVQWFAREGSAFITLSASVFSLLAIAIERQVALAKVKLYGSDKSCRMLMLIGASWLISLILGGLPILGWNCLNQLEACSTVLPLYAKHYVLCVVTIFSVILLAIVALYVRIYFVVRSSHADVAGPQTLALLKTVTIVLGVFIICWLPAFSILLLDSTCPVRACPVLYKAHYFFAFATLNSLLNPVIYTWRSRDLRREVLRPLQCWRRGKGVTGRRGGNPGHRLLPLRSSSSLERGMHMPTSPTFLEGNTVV

T1: Nogo-A (endogenous, mouse brain) (mouse (endogenous in mouse brain)) (UniProt Q99P72)
T1 sequence: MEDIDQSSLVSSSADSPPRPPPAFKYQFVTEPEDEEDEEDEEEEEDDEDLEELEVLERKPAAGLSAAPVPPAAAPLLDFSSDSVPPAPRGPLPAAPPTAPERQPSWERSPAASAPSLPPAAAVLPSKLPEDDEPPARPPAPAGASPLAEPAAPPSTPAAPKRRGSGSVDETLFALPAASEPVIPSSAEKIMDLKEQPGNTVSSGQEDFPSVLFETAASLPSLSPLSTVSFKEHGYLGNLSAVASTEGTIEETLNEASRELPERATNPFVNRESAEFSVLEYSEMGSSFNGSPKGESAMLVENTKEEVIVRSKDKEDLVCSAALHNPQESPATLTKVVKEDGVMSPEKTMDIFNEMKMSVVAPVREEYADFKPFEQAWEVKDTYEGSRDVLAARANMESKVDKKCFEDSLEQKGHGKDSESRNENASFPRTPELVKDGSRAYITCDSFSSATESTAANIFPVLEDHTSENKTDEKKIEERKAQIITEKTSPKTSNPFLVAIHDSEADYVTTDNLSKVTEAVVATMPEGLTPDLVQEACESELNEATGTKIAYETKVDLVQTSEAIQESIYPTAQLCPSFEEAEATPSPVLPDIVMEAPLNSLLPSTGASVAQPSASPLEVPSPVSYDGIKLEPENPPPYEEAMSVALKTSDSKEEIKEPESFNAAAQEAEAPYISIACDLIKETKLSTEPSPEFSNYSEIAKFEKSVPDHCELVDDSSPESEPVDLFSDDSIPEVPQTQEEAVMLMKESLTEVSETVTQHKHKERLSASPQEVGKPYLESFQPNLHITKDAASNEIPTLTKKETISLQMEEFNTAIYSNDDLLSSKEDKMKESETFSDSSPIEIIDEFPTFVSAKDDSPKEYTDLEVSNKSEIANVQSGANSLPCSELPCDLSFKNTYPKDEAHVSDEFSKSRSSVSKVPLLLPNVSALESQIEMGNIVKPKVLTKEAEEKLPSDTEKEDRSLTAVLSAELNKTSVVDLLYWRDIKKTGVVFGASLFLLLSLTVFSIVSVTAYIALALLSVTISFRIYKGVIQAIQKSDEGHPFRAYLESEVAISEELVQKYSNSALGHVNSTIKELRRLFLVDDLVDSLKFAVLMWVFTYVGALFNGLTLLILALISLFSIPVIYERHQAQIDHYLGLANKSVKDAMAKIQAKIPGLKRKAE

T2: TrxA-SPARC (UniProt P09486)
T2 sequence: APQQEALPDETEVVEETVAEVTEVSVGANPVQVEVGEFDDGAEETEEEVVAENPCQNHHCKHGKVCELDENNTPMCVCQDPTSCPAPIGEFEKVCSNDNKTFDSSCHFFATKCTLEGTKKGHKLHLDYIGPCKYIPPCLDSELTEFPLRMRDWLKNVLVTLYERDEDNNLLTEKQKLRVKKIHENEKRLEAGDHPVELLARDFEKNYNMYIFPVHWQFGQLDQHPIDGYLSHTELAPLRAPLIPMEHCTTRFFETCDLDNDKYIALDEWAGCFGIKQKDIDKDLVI


What was measured:
[1] = target: T1, Nogo-A (endogenous, mouse brain) (mouse (endogenous in mouse brain)); assay: co-IP; co-IP of Nogo-A, S1PR2 and SPARC from brain lysates of mice xenografted without glioblastoma cells (nx) or with LN308 cells expressing shCTR or shSPARC (Fig. 2i)
[2] = target: T1, Nogo-A (endogenous, mouse brain) (mouse (endogenous in mouse brain)); assay: co-IP; co-precipitation of Nogo-A with S1PR2 and with SPARC lacking the Kazal-like module (Suppl. Figure 4n); set-up not shown
TrxA-SPARC = target: T2, TrxA-SPARC; assay: pull-down; IMAC using TrxA-SPARC with human brain and liver lysates (Fig. 2e); brain lysates of wild-type and Nogo-A KO mice (Suppl. Figure 3a, set-up not shown); only the target purified

binding [1]	binding [2]	binding (TrxA-SPARC)	Molecule
binds	binds		sphingosine 1-phosphate receptor 2 (S1PR2), in brain lysates (from UniProt P52592 1-352)
		binds	Nogo-A (endogenous, human brain) (from UniProt Q9NQC3-1 1-1192)
		binds	Nogo-A (endogenous, mouse brain) (protein, UniProt Q99P72-2 1-1162) MEDIDQSSLVSSSADSPPRPPPAFKYQFVTEPEDEEDEEDEEEEEDDEDLEELEVLERKPAAGLSAAPVPPAAAPLLDFSSDSVPPAPRGPLPAAPPTAPERQPSWERSPAASAPSLPPAAAVLPSKLPEDDEPPARPPAPAGASPLAEPAAPPSTPAAPKRRGSGSVDETLFALPAASEPVIPSSAEKIMDLKEQPGNTVSSGQEDFPSVLFETAASLPSLSPLSTVSFKEHGYLGNLSAVASTEGTIEETLNEASRELPERATNPFVNRESAEFSVLEYSEMGSSFNGSPKGESAMLVENTKEEVIVRSKDKEDLVCSAALHNPQESPATLTKVVKEDGVMSPEKTMDIFNEMKMSVVAPVREEYADFKPFEQAWEVKDTYEGSRDVLAARANMESKVDKKCFEDSLEQKGHGKDSESRNENASFPRTPELVKDGSRAYITCDSFSSATESTAANIFPVLEDHTSENKTDEKKIEERKAQIITEKTSPKTSNPFLVAIHDSEADYVTTDNLSKVTEAVVATMPEGLTPDLVQEACESELNEATGTKIAYETKVDLVQTSEAIQESIYPTAQLCPSFEEAEATPSPVLPDIVMEAPLNSLLPSTGASVAQPSASPLEVPSPVSYDGIKLEPENPPPYEEAMSVALKTSDSKEEIKEPESFNAAAQEAEAPYISIACDLIKETKLSTEPSPEFSNYSEIAKFEKSVPDHCELVDDSSPESEPVDLFSDDSIPEVPQTQEEAVMLMKESLTEVSETVTQHKHKERLSASPQEVGKPYLESFQPNLHITKDAASNEIPTLTKKETISLQMEEFNTAIYSNDDLLSSKEDKMKESETFSDSSPIEIIDEFPTFVSAKDDSPKEYTDLEVSNKSEIANVQSGANSLPCSELPCDLSFKNTYPKDEAHVSDEFSKSRSSVSKVPLLLPNVSALESQIEMGNIVKPKVLTKEAEEKLPSDTEKEDRSLTAVLSAELNKTSVVDLLYWRDIKKTGVVFGASLFLLLSLTVFSIVSVTAYIALALLSVTISFRIYKGVIQAIQKSDEGHPFRAYLESEVAISEELVQKYSNSALGHVNSTIKELRRLFLVDDLVDSLKFAVLMWVFTYVGALFNGLTLLILALISLFSIPVIYERHQAQIDHYLGLANKSVKDAMAKIQAKIPGLKRKAE
binds			SPARC produced by xenografted LN308 glioblastoma cells (protein, UniProt P09486 18-303) APQQEALPDETEVVEETVAEVTEVSVGANPVQVEVGEFDDGAEETEEEVVAENPCQNHHCKHGKVCELDENNTPMCVCQDPTSCPAPIGEFEKVCSNDNKTFDSSCHFFATKCTLEGTKKGHKLHLDYIGPCKYIPPCLDSELTEFPLRMRDWLKNVLVTLYERDEDNNLLTEKQKLRVKKIHENEKRLEAGDHPVELLARDFEKNYNMYIFPVHWQFGQLDQHPIDGYLSHTELAPLRAPLIPMEHCTTRFFETCDLDNDKYIALDEWAGCFGIKQKDIDKDLVI
